Measurements as given in PubChem BioAssay AID1347076 (National Center for Advancing Translational Sciences (NCATS), 2019).
In all, about 400,000 compounds went through this assay and about 13,000 (3.2%) were called active. The inconclusive results got no clear call from the source; some entries with a clear call stand among them for comparison. Calls follow the shape of the dose curve; as a rule, active = well fitted cell-killing curve with a large enough effect; inconclusive = small, poorly fitted or top-dose-only effect, or effect the other way; inactive = flat fitted curve, though single readings scatter. Potencies of inconclusive entries are doubtful fits and often do not repeat. Some compounds were tested as several samples or in several runs, with calls that do not always agree.

Assay: qHTS assay for MDR1-selective chemotherapeutics: Primary screen using the drug-selected MDR subline cells KB-V1; also: nearly all actives have a fitted effect of over 60% in size
Conditions: KB-V1 MDR cells viability, CellTiter-Glo, 72 h; activity change, negative = cytotoxicity: at 46.1 µM (top of the series)
Outline: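 Luminescent ATP read-out (CellTiter-Glo, 10 min) measures survival of drug-selected KB-V1 MDR cells after 72 h, 37 degrees C compound exposure. Medium: phenol-red-free DMEM, 10% FBS. Values from fitted concentration-response curves.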
% is scaled to controls: 0 for no effect and ±100 for the full control effect; potency is read from the fitted curve at half-maximal effect.

| Compound | activity change, negative = cytotoxicity | Potency |
| --- | --- | --- |
| CCOCC(=O)Nc1nnc(C2CCCCC2)s1 | inactive: 2.24% | – |
| CC1C2NC(=O)N(Cc3ccccc3)C1(C)Oc1ccccc12 (centres undefined) | – | inconclusive: 0.291 µM [rising, full curve] |
| COc1cc(C2CC(=O)Oc3cc(OC)c(OC)c(OC)c32)cc(OC)c1OC (centres undefined) | inactive: -0.0159% | – |
| O=S1(=O)c2ccc(Br)cc2N2CCC[C@@H]2CN1C1CC1 | inactive: -9.93% | – |
| COc1cccc(S(=O)(=O)NCc2ccc(C(=O)N3CCN(C)CC3)cc2)c1 | inactive: 13.2% | – |
| NC(=O)c1cccn1Cc1ccccc1Cl | inactive: -19.7% | – |
| Cc1ccc(-c2noc(C3CCCN(C(=O)c4ccccc4Br)C3)n2)cc1 (centres undefined) | – | active: 18.4 µM |
| CCc1cc(=O)oc2c(C)c(OC(C)C(=O)NCCCn3ccnc3)ccc12 (centres undefined) | – | inconclusive: 14.6 µM [rising, single point] |
| CCOC(=O)N(NC(=O)C(O)(c1ccccc1)c1ccccc1)c1ccccc1 | inactive: -3.55% | – |
| O=C(Nc1cnccn1)c1ccc(Cl)cc1 | inactive: 11.3% | – |
| CCN(c1ccc(C(=O)CSc2nnc(C3CC3)n2C2CC2)cc1)S(C)(=O)=O | inactive: 0% | – |
| CCCCN(CCCC)C(=O)CSc1nnc(-c2cc(OC)c(OC)c(OC)c2)o1 | – | active: 12.6 µM |
| CCn1c(CN2CCCCC2)nc2cc(S(=O)(=O)N3CCCCC3)ccc21 | inactive: -16.8% | – |
| CN1CCN(S(=O)(=O)c2cccc(C(=O)NCCOc3ccccc3)c2)CC1 | – | inconclusive: 23.1 µM [cytotoxic, single point] |
| O=C(Nc1nnc(COc2ccc(Cl)cc2)s1)C1CCCO1 (centres undefined) | – | inconclusive: 23.1 µM [cytotoxic, partial curve] |
| Cc1ccc(CS(=O)Cc2ccc(C(=O)NCc3ccccc3Br)o2)cc1 (centres undefined) | – | inconclusive: 18.4 µM [cytotoxic, single point] |
| O=C(Nc1ccccc1Cl)c1cc(C2CCCN(C(=O)c3ccccc3)C2)on1 (centres undefined) | inactive: 15.8% | – |
| C#CCn1cc(/C=C2\NC(=O)NC2=O)c2ccccc21 | – | inconclusive: 14.6 µM [cytotoxic, partial curve] |
| CCOC(=O)c1c(NC(=O)c2cccc([N+](=O)[O-])c2C(=O)O)sc2c1CCCC2 | – | inconclusive: 20.6 µM [rising, partial curve, poor fit] |
| CCOc1cc(CNCCSc2nnnn2-c2ccccc2)ccc1OC | inactive: -7.91% | – |
| COc1ccc(CNC(=O)C(c2cccs2)N(Cc2ccco2)C(=O)Cc2cccs2)cc1 (centres undefined) | – | inconclusive: 18.4 µM [cytotoxic, single point] |
| Cc1ccc(CCS(=O)(=O)c2ccc(C(C)(C)C)cc2)cn1 | – | inconclusive: 10.3 µM [cytotoxic, partial curve] |
| Nc1nc(Nc2ccccc2)nc2ccccc12 | – | inconclusive: 13 µM [cytotoxic, partial curve, poor fit] |
| CN1CCN(CCCNC(=O)c2ccc3c(c2)N(Cc2ccc(F)cc2)CCS3)CC1 | inactive: 7.57% | – |
| CC(C)N1CC2(CC(c3ccccc3C(F)(F)F)=NO2)CN1C(=O)c1ccco1 (centres undefined) | inactive: 3.68% | – |

Among those listed so far, five contain an aryl methoxy group.

| Compound | activity change, negative = cytotoxicity | Potency |
| --- | --- | --- |
| COc1cc(C2CC(=O)Oc3cc(OC)c(OC)c(OC)c32)cc(OC)c1OC (centres undefined) | inactive: -0.0159% | – |
| COc1cccc(S(=O)(=O)NCc2ccc(C(=O)N3CCN(C)CC3)cc2)c1 | inactive: 13.2% | – |
| CCCCN(CCCC)C(=O)CSc1nnc(-c2cc(OC)c(OC)c(OC)c2)o1 | – | active: 12.6 µM |
| CCOc1cc(CNCCSc2nnnn2-c2ccccc2)ccc1OC | inactive: -7.91% | – |
| COc1ccc(CNC(=O)C(c2cccs2)N(Cc2ccco2)C(=O)Cc2cccs2)cc1 (centres undefined) | – | inconclusive: 18.4 µM [cytotoxic, single point] |

Following part:

| Compound | activity change, negative = cytotoxicity | Potency |
| --- | --- | --- |
| CCOC(=O)[C@]12CCCC=C1N(Cc1cccc3ccccc13)C(=O)[C@H](CC(=O)NCCc1ccccc1OC)C2 | – | inconclusive: 32.6 µM [cytotoxic, single point] |
| NC(=S)NN=C1CCCCCCCCCC1 | – | inconclusive: 16.4 µM [cytotoxic, single point] |
| O=S(=O)(c1ccc(OCC2CO2)cc1)c1ccc(OCC2CO2)cc1 (centres undefined) | – | inconclusive: 13 µM [cytotoxic, partial curve, poor fit] |
| Cc1ccc(S(C)(=O)=O)cc1C(=O)Nc1cccc(S(=O)(=O)N2CCCCCC2)c1 | – | inconclusive: 29.1 µM [cytotoxic, single point] |
| CCOc1ccc(-c2csc(Cn3c(CN4CCN(C)CC4)nc4ccccc4c3=O)n2)cc1 | – | inconclusive: 25.9 µM [cytotoxic, single point] |
| CC(C)CCN(C(=O)c1csnn1)C(C(=O)NC1CCCCC1)c1ccc(F)cc1 (centres undefined) | – | inconclusive: 2.91 µM [cytotoxic, full curve] |
| Cc1c(Cl)c(C(=O)NC2C3CC4CC(C3)CC2C4)nn1C (centres undefined) | – | active: 14.6 µM |
| CCN1C(=O)[C@H]2[C@@H](c3ccc(C)cc3)N[C@]3(CCCN(CCC(C)C)C3=O)[C@H]2C1=O | – | inconclusive: 29.1 µM [rising, single point] |
| COc1ccc(-c2cc(C(F)(F)F)n3nc(C(=O)N4CCCCC4)cc3n2)cc1OC | – | active: 10.3 µM |
| O=C(c1cn(CCOc2ccc(Cl)cc2)c2ccccc12)C1CCCCC1 | inactive: 14.2% | – |
| COc1ccc(/C=C/CN2CCCC(CO)(Cc3cccc(Cl)c3)C2)cc1 (centres undefined) | inactive: -11.8% | – |
| CCOC(=O)c1cc2c(ccn2C)n1CC(=O)N(Cc1ccccc1)c1ccccc1 | – | inconclusive: 29.1 µM [cytotoxic, single point] |
| Cc1ccc(Nc2c(-c3ccc(N4CCOCC4)cc3)nc3cnccn23)cc1 | inactive: -11.3% | – |
| CN(C)CC(C)(C)CN=Cc1c(O)[nH]c2ccccc12 | – | inconclusive: 18.4 µM [rising, partial curve] |
| Cc1oc(-c2ccccc2Cl)nc1Cn1cccc1C1=NC(c2ccccc2)CO1 (centres undefined) | – | inconclusive: 23.1 µM [cytotoxic, single point] |
| Cc1ccc(CNS(=O)(=O)N(C)C)cc1 | – | inconclusive: 20.6 µM [rising, partial curve, poor fit] |
| O=C(NC(=S)NCC1CCCO1)c1ccc([N+](=O)[O-])cc1 (centres undefined) | – | inconclusive: 25.9 µM [rising, single point] |
| CC(C)CNS(=O)(=O)c1ccc(NC(=O)Cn2nc(-c3ccc(F)cc3)ccc2=O)cc1 | inactive: -12.9% | – |
| Cc1cc(NC(=O)C(C)SCC(=O)O)no1 (centres undefined) | inactive: 14.8% | – |
| COc1cc(Cl)c(C)cc1NC(=O)CNC(=O)Cn1cnc2ccccc2c1=O | – | inconclusive: 23.1 µM [cytotoxic, single point] |
| CCN(CC)C(=O)Cn1cc(C(=O)C(=O)N2CCN(c3ccc([N+](=O)[O-])cc3)CC2)c2ccccc21 | – | inconclusive: 8.2 µM [cytotoxic, partial curve, poor fit] |
| CCCCn1nc(NC(=O)c2cccs2)c2cc3cc(OC)ccc3nc21 | – | inconclusive: 16.4 µM [cytotoxic, single point] |
| CC(=O)c1c(C)oc2ccc(N(C(=O)c3ccncc3)S(=O)(=O)c3ccc(C)cc3C)cc12 | – | active: 23.1 µM |
| COc1ccccc1NC(=O)C1=C(C)Nc2nc(SCc3ccccc3Cl)nn2C1c1ccncc1 (centres undefined) | inactive: 4.35% | – |
| COc1ccc(C2=NOC(C(=O)N3CCN(c4ccccc4OC)CC3)C2)cc1 (centres undefined) | – | inconclusive: 18.4 µM [cytotoxic, single point] |

| Compound | activity change, negative = cytotoxicity | Potency |
| --- | --- | --- |
| Cc1cc(C)n2nc(SCCC(=O)NCCc3ccccc3)nc2n1 | – | active: 14.6 µM |
| Cc1nc(C(=O)Nc2cccc(Cl)c2)nn1-c1cc(OC(C)C)c(Cl)cc1Cl | – | inconclusive: 9.2 µM [cytotoxic, partial curve, poor fit] |
| O=C(Nc1ccccc1N1CCN(C(=O)c2ccc(Cl)cc2)CC1)c1cccc([N+](=O)[O-])c1 | inactive: -3.34% | – |
| O=C(Cc1csc(NC(=O)Nc2ccc(Cl)cc2)n1)NC1CCCC1 | – | inconclusive: 16.4 µM [cytotoxic, single point] |
| CCCN(C)C1CN(Cc2cn(Cc3cccc(C(F)(F)F)c3)nn2)S(=O)(=O)C1 (centres undefined) | – | inconclusive: 14.6 µM [cytotoxic, partial curve] |
| CN1CCN(S(=O)(=O)c2cnccc2N2CCN(c3cccc(Cl)c3)CC2)CC1 | inactive: -8.2% | – |
| CC(C)OCc1cc(CN2CCN(c3ccccc3)CC2)c(O)c2ncccc12 | – | active: 6.51 µM |
| CCOC(=O)/C=C1\CN(Cc2ccc(OC)cc2)S(=O)(=O)c2ccccc21 | – | inconclusive: 29.1 µM [cytotoxic, single point] |
| CN(CC(=O)Nc1ccc(OC(F)(F)F)cc1)C(=O)/C=C/c1cc2c(cc1[N+](=O)[O-])OCO2 | inactive: 5.71% | – |
| COc1ccc(-c2csc(N(CC3CCCO3)C(=O)c3ccc(C)cc3)n2)cc1 (centres undefined) | – | active: 3.66 µM |
| COc1ccc(C2C3=C(N=C4SCC(=O)N42)c2ccccc2CC3)cc1OC (centres undefined) | inactive: -17.1% | – |
| CC(OC(=O)CC1CCCCC1)C(=O)Nc1ccc(S(N)(=O)=O)cc1 (centres undefined) | – | inconclusive: 25.9 µM [rising, single point] |
| Cc1noc(C)c1C(=O)OC(C)C(=O)c1ccc(C(C)(C)C)cc1 (centres undefined) | inactive: 14% | – |
| CCOC(=O)c1ccc(N2C(=O)c3n[nH]c(-c4ccco4)c3C2c2ccc(F)cc2)cc1 (centres undefined) | inactive: 0% | – |
| CCn1c(CC(=O)Nc2ccc(C)cc2)nnc1SCC(=O)N1CCN(c2ccccc2)CC1 | inactive: -8.71% | – |
| O=C(Cn1cnc2c(cnn2-c2ccc(F)cc2)c1=O)N1CCCc2ccccc21 | – | active: 2.91 µM |
| CN(C)c1ccc(/C=N/n2c(COc3ccccc3)n[nH]c2=S)cc1 | – | inconclusive: 11.6 µM [cytotoxic, partial curve] |
| CC(C)N(C)CCOC(=O)/C=C/c1ccccc1 | inconclusive: -58.5% | – |
| Cc1ccc(CN2CC(C(=O)Nc3ncc(C)s3)CC2=O)cc1 (centres undefined) | – | inconclusive: 13 µM [cytotoxic, partial curve, poor fit] |
| CCCn1c(SCC(=O)N2c3ccccc3Sc3ccccc32)nc2c1c(=O)n(C)c(=O)n2C | – | inconclusive: 7.31 µM [cytotoxic, partial curve] |
| CC(C)On1c(SCC(=O)N(C)C)nc2ccccc2c1=O | inactive: -22.4% | – |
| Cc1ccc(-c2csc3n[nH]c(=S)n23)cc1 | – | active: 11.6 µM |
| CCOc1ccc(C(=O)NCC(=O)NNC(=O)CN(C)S(=O)(=O)c2ccc(Cl)cc2)cc1 | – | inconclusive: 10.3 µM [rising, partial curve] |
| Cc1nc2ccccn2c(=O)c1NC(=O)c1ccc(Br)o1 | inactive: 8.75% | – |
